The target of test [1] is histone deacetylase 6 (HDAC6) (human (endogenous in cervical cancer cells)) (UniProt Q9UBN7). In words: co-IP; co-IP from cervical cancer cells followed by western blot; cells treated with or without WA (p53-E6AP) or RIC (p53-HDAC6); bait not told. (In general: Immunoblotting shows a protein as a band on a membrane.)
The target in test [2] is HDAC6 (HEK-293T exogenous expression system) (UniProt Q9UBN7). In words: co-IP; HEK-293T exogenous expression system; with WA (p53-E6AP) or RIC (p53-HDAC6); bait and tags not told.

Protein sequences, listed by entry. Tags and fused reporters are not part of them.
UniProt Q9UBN7: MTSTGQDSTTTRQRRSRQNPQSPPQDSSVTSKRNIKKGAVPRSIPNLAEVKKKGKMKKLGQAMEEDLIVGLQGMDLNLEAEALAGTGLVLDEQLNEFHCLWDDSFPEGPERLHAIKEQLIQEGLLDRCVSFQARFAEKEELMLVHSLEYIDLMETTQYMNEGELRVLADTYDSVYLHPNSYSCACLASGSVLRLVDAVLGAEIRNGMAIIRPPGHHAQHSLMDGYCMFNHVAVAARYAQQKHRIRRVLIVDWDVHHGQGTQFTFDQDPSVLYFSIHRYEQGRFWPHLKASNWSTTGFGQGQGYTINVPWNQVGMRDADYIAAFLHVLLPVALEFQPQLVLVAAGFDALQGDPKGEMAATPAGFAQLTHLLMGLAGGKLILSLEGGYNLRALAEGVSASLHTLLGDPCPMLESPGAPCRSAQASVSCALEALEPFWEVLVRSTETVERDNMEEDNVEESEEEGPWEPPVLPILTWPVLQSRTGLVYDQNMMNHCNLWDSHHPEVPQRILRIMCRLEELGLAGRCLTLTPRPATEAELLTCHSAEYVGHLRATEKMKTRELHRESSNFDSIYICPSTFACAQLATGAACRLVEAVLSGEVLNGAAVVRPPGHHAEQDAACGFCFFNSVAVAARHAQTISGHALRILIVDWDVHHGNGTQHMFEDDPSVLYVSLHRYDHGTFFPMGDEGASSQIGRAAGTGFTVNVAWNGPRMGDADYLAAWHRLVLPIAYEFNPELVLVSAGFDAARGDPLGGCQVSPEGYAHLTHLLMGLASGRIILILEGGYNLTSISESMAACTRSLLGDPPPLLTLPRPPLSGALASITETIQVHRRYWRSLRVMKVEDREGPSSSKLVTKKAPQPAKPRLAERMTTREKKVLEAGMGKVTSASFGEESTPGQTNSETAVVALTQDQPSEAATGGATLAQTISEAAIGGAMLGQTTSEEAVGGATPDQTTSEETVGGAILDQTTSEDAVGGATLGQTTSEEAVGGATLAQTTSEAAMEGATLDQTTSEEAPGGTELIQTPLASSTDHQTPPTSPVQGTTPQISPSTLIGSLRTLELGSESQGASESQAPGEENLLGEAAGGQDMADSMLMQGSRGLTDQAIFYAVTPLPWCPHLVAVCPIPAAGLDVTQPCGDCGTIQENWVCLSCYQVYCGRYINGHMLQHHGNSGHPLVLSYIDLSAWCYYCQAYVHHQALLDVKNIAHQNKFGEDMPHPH

This is an account of results in article PMC12747991.

No constants are given. Whether binding was seen depends on the method and setting. In cells and extracts the contact can be indirect. Some entries that bind do so weakly or less than the wild type.

Take p53 (from UniProt P04637 1-393): the binding entry in test [1] is given as “binds”.
On to “p53 (HEK-293T exogenous expression system) (from UniProt P04637 1-393)”, for which the binding result in test [2] is “binds”.
